Drawing on PMC7413540, this text covers binding for 2 substances.

Chains of the proteins cited; added tags and fusions are not shown.
UniProt P38398: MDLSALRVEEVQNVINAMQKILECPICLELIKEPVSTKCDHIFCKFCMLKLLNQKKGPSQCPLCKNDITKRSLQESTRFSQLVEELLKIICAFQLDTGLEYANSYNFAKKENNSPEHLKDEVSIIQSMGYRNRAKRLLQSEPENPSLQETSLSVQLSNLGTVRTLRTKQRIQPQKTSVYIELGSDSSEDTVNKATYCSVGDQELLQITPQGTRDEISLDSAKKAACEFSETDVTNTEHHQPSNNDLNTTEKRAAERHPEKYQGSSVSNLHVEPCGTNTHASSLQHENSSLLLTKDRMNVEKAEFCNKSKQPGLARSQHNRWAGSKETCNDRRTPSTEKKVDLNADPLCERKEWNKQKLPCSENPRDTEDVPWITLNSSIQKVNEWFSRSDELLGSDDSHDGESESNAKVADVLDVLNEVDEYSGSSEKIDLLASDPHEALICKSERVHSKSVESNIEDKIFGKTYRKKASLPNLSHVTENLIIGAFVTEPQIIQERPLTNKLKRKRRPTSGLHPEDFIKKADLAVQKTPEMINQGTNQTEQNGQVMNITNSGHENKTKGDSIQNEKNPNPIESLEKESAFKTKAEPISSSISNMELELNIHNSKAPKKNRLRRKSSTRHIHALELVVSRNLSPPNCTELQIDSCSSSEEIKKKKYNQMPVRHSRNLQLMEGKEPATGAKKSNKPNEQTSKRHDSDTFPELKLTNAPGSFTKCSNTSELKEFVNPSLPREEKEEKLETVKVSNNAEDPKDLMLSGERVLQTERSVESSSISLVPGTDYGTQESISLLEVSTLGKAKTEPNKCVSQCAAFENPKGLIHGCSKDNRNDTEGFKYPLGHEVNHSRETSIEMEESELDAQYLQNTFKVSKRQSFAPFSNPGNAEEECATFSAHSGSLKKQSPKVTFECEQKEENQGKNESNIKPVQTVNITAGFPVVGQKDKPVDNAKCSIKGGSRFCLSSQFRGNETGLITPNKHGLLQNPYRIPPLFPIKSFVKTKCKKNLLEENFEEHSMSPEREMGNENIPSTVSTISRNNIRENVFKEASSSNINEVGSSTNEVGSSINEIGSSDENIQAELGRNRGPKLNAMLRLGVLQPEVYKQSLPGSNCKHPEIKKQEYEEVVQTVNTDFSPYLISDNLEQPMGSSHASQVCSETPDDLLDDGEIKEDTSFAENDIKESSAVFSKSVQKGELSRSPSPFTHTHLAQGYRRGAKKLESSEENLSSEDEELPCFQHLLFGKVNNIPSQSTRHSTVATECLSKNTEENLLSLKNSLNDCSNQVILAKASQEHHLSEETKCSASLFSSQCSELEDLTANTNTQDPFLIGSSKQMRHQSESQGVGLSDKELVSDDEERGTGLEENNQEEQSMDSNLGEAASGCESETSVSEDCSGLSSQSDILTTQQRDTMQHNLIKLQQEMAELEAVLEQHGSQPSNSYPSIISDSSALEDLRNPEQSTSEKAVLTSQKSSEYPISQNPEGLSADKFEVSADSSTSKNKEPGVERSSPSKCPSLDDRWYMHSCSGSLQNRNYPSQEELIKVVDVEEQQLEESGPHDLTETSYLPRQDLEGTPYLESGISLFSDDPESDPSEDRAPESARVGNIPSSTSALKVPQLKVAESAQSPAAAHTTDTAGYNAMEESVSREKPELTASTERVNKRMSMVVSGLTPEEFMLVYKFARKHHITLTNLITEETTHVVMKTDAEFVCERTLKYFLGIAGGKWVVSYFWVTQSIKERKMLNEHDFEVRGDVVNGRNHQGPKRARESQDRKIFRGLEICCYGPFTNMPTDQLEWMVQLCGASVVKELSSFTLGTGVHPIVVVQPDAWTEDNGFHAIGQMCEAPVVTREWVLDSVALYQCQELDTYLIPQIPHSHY
UniProt P10415: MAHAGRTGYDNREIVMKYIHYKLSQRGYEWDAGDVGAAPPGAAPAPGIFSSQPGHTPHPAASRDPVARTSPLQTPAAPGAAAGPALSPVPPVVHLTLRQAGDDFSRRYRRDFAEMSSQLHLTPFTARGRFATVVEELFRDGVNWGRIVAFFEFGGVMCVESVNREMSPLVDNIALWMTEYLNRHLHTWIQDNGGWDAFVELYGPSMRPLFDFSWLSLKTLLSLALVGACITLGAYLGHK
UniProt Q99873: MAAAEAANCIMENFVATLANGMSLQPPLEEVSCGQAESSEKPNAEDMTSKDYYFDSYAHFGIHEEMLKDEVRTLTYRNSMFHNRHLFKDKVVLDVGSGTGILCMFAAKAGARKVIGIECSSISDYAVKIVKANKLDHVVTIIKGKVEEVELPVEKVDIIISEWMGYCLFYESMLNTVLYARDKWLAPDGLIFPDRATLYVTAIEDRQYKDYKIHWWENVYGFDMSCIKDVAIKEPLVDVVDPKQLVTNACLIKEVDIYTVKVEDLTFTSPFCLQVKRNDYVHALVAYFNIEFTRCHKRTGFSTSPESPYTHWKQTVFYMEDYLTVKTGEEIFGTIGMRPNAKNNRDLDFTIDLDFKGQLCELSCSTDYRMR

Results are given in words; binding and its absence hold for the method and conditions named. In cells and extracts the contact can be indirect. Some entries that bind do so weakly or less than the wild type.

Assay [1] deals with BRCA1 (human (endogenous in MCF7 and MDA-MB-231)) (UniProt P38398). Put plainly: co-IP; 1 mg total extracts of siControl MCF7 cells at times after IR (10 Gy); immunoprecipitated with anti-BRCA1 (clone 6B4); immunoblot. A general note: In western blotting, separated proteins are transferred to a membrane and probed.
Assay [2] shares this target. Put plainly: co-IP; 1 mg total extracts of MCF7 cells, non-irradiated siControl cells, and siPRMT1 cells without and after IR (10 Gy); immunoprecipitated with anti-BRCA1 (clone 6B4); immunoblot.
Assay [3] shares this target. Put plainly: co-IP; 1 mg cytosolic extracts of MCF7 and MDA-MB-231 cells, without and at times after IR (10 Gy); immunoprecipitated with anti-BRCA1 (clone 6B4), Protein G magnetic beads, 4 °C; immunoblot.

Take Bcl-2 (from UniProt P10415 1-239): the binding entry is given as “no binding (condition: after IR (10 Gy), siControl cells)” in assay [1] and “binds” in assay [2].

Consider “PRMT1 (from UniProt Q99873 1-371) (enzyme)”, for which the binding result in assay [3] is given as “binds”.
